From PubChem BioAssay AID540256 (National Center for Advancing Translational Sciences (NCATS), 2011)
Hit rate of the full screen: of about 300,000 compounds, about 3,700 (1.2%) were called active. Inconclusive results, whose numbers are uncertain, are shown with a selection of clear calls. The call rests on the fitted dose curve; tested in HEK293 cells. Where the call is inconclusive, the potency comes from a doubtful curve fit.

test: qHTS for Inhibitors of binding or entry into cells for Lassa Virus; details: Lassa virus pseudotype entry inhibition, cell reporter; series mostly up to 37.9 µM; further: nearly all actives have a fitted effect of over 50% in size
Potency means the concentration at half of the fitted maximal effect.

Compound	Potency
O=C(CN1C(=O)C2C3C=CC(C3)C2C1=O)NCCc1ccccc1 (centres undefined)	inactive
CCC[n+]1c(C)sc2c3c(ccc21)CCCC3	inconclusive: 35.5 µM [inhibitor, single point]
O=C(N/N=C/c1ccnc2ccccc12)c1ccccc1O	inconclusive: 1.26 µM [inhibitor, single point]
CC(C)c1ccc(-c2nnn(CCC(=O)O)n2)cc1	inconclusive: 3.55 µM [inhibitor, full curve]
CCc1nnc2c(NCc3cccc(OC)c3)nc3ccccc3n12	inactive
CN(c1ccccc1)c1ccc(/C=C(\CCC(=O)O)c2nc3ccccc3s2)cc1[N+](=O)[O-]	inactive
CC(=NCCC1=CCCCC1)c1c(O)n(C)c(=O)n(C)c1=O	inconclusive: 2.31 µM [inhibitor, partial curve, poor fit]
Cc1nonc1N1CCN(Cc2cn[nH]c2-c2ccc(F)cc2F)CC1	inconclusive: 35.5 µM [inhibitor, single point]
C/C(Cl)=C\Cn1c(NCCc2ccccc2)nc2c1c(=O)n(C)c(=O)n2C	active: 4.61 µM
CN(C(=O)c1cccc(C#N)c1)c1nnc(-c2ccncc2)s1	inconclusive: 0.891 µM [inhibitor, single point]
O=C(NNC(=O)c1ccncc1)Nc1ccc([N+](=O)[O-])cc1	inactive
O=C(CN(C(=O)c1csnn1)c1ccc2c(c1)OCCO2)NCc1ccccc1	inconclusive: 0.631 µM [activator, single point]
CC(C)c1nc(-c2ccccn2)no1	inconclusive: 8.2 µM [activator, partial curve]
COc1cc(NC(=O)C/C(C)=N/NC(=O)c2cccs2)c(OC)cc1Cl	inconclusive: 20 µM [inhibitor, single point]
COc1ccc2nc(SCC(=O)NC3CCCCC3)[nH]c2c1	inconclusive: 12.6 µM [inhibitor, single point]
COc1cccc(-n2ncc3c(NN=Cc4ccc(C(=O)NCCN(C)C)cc4)ncnc32)c1	inconclusive: 0.0499 µM [activator, full curve, poor fit]
CCCCOc1ccc(CNC(=O)c2cnc3sc(N4CCC(C)CC4)nn3c2=O)cc1	inconclusive: 1.26 µM [inhibitor, partial curve, poor fit]
CC(=O)Nc1ccccc1OCC(=O)NCCc1ccc(Cl)cc1Cl	inactive
COc1cc(C(C)=O)ccc1OCC(O)Cn1nc(C)c(Br)c1C (centres undefined)	inconclusive: 17.8 µM [inhibitor, single point]
CCOC(=O)C1=C(CC)OC(N)=C(C#N)C1c1ccc(OC)c(OC)c1OC (centres undefined)	inconclusive: 6.31 µM [inhibitor, single point]
COc1ccc(-c2oc3ncnc(NCCN4CCOCC4)c3c2-c2ccc(OC)cc2)cc1	inconclusive: 5.17 µM [inhibitor, partial curve]
CCC1CN(C(=O)N2CCC(C(=O)NCc3ccco3)CC2)c2cc(C)ccc2O1 (centres undefined)	inconclusive: 0.562 µM [inhibitor, full curve, poor fit]

Compound	Potency
COc1ccc(/C=N/N2CCN(C3c4ccccc4-c4ccccc43)CC2)cc1OC	inconclusive: 5.01 µM [activator, partial curve, poor fit]
O=C(CN(Cc1ccc(F)cc1)C(=O)c1ccco1)NCc1ccc(F)cc1	inconclusive: 4.61 µM [inhibitor, full curve, poor fit]
S=C(NCc1ccccc1)N1CCn2cccc2C1c1cccnc1 (centres undefined)	inconclusive: 20 µM [inhibitor, partial curve, poor fit]
CCOCCCn1c(=S)[nH]c2cc(C(=O)N3CCC(C(N)=O)(N4CCCCC4)CC3)ccc2c1=O	inactive
Cc1nc2cc(Cc3ccccc3)ccc2o1	inconclusive: 4.47 µM [activator, partial curve, poor fit]
CSCCC(NS(=O)(=O)c1ccc2c(c1)OCCO2)C(=O)N(C)Cc1ccc(C)cc1 (centres undefined)	inactive
O=C(CCCOc1ccccc1)Nc1ccc(Cl)c(S(=O)(=O)N2CCOCC2)c1	active: 17.8 µM
CCOc1ccc(C(=O)N2CCC(c3ccncc3)CC2)cc1	inactive
COc1ccc(/C=C2/C(=O)OCc3cc(OC)c(OC)cc32)cc1	inconclusive: 3.26 µM [inhibitor, full curve, poor fit]
COC(=O)c1ccccc1NC(=O)Cn1nc(C(F)(F)F)c2c1CCCC2	inactive
CC(=O)c1cc(N2CCOCC2)ccc1[N+](=O)[O-]	inconclusive: 8.91 µM [activator, partial curve, poor fit]
CCn1c(Cc2ccccc2)nnc1SCC(=O)Nc1ccccc1N1CCOCC1	inactive
CCOC(=O)c1cc(OC(=O)c2cccc(Cl)c2)n(-c2ccccc2)n1	inconclusive: 7.94 µM [inhibitor, partial curve, poor fit]
Cc1ccc(C)c(N2CCN(C(=O)Cn3c(C)c4cnn(-c5ccccc5)c(=O)c4c3C)CC2)c1	inconclusive: 7.08 µM [inhibitor, single point]
COc1cc(NC(=O)Cn2c(=O)nc(-c3ccccc3F)c3cc(Cl)ccc32)cc(OC)c1	inconclusive: 31.6 µM [inhibitor, single point]
CC1CN(C(=O)CCC(=O)NCCCN2CCC(Cc3ccccc3)CC2)c2cc(Cl)ccc2O1 (centres undefined)	inconclusive: 35.5 µM [inhibitor, single point]
CC1CCCCN1c1nc(-c2ccc(C(C)(C)C)cc2)nc2ccccc12 (centres undefined)	inconclusive: 35.5 µM [inhibitor, single point]
COc1cc(CNn2cn[nH]c2=S)ccc1OCC(=O)NC(C)(C)C	inconclusive: 0.562 µM [inhibitor, full curve, poor fit]
Cn1cccc1-c1cc(C(=O)N/N=C/c2cc(Br)ccc2O)[nH]n1	inconclusive: 6.31 µM [inhibitor, partial curve, poor fit]
Cn1cc(C(=O)c2ccc(Cl)cc2Cl)cc1C(=O)N/N=C(\N)COc1ccc(F)cc1	inconclusive: 35.5 µM [inhibitor, single point]
CCOc1ccc(NC(=O)c2oc(=O)c3ccccc3c2-c2ccc(C)cc2)cc1	inconclusive: 6.31 µM [inhibitor, single point]
CCOc1ccccc1OCCN1CCC(Cc2ccccc2)CC1	inconclusive: 29.1 µM [inhibitor, single point]

For convenience, some entries already given:
Compound	Potency
Cc1nc2cc(Cc3ccccc3)ccc2o1	inconclusive: 4.47 µM [activator, partial curve, poor fit]
CSCCC(NS(=O)(=O)c1ccc2c(c1)OCCO2)C(=O)N(C)Cc1ccc(C)cc1 (centres undefined)	inactive
O=C(CCCOc1ccccc1)Nc1ccc(Cl)c(S(=O)(=O)N2CCOCC2)c1	active: 17.8 µM
CCOc1ccc(C(=O)N2CCC(c3ccncc3)CC2)cc1	inactive

Additional records.

Compound	Potency
CCN1CCN(C(=O)c2ccc3c(c2)N(Cc2ccc(F)cc2)C(=O)c2ccccc2S3(=O)=O)CC1	inconclusive: 1.12 µM [activator, full curve, poor fit]
O=c1oc2ccc(F)cc2cc1-c1nc(-c2cccs2)no1	inconclusive: 12.6 µM [activator, partial curve]
S=C(NCc1ccccc1)Nc1ccc(Cl)cc1	inconclusive: 31.6 µM [inhibitor, single point]
CN(CC(=O)Nc1ccc(F)c(F)c1F)C(=O)CN1C(=O)C2CCCCC2C1=O (centres undefined)	inconclusive: 6.31 µM [inhibitor, single point]
O=C1NC(=O)[C@]2(Cc3ccccc3N3CCN(c4ccccc4)CC32)C(=O)N1c1ccccc1 (some centres undefined)	inactive
CCOC(=O)c1nn(-c2ccc(F)cc2)c(C)c1C(C)=O	inactive
C=CC[n+]1c(-c2ccc(Cl)cc2Cl)csc1Nc1c(C)n(C)n(-c2ccccc2)c1=O	inconclusive: 8.91 µM [inhibitor, partial curve, poor fit]
COc1ccc(CC(=O)Nc2nnc3n2CCS3)cc1	inactive
COc1ccc(Cl)cc1NC(=O)CN(C)C(=O)c1ccc(N2CCCCC2)c([N+](=O)[O-])c1	inconclusive: 22.4 µM [inhibitor, single point]
Nc1ccc2cccc(O)c2c1	inconclusive: 11.2 µM [activator, partial curve, poor fit]
COc1ccccc1CNC(=O)CCS(=O)(=O)c1ccc2c(c1)CC(C)N2C(=O)C1CC1 (centres undefined)	inconclusive: 7.08 µM [inhibitor, partial curve, poor fit]
O=C(NCCc1c[nH]c2ccccc12)C(F)(F)C(F)F	inconclusive: 35.5 µM [activator, single point]
CCCc1ccccc1OCCNC(C)=O	inactive
Cc1cc(NC(=O)CSc2nc3c([nH]c4ccccc43)c(=O)n2-c2ccc(Cl)cc2)no1	inconclusive: 15.8 µM [inhibitor, partial curve, poor fit]
CN(C)C(=O)c1cc2cc([N+](=O)[O-])ccc2s1	inconclusive: 3.98 µM [inhibitor, full curve]
C/C=C(/C)C(=O)O[C@H]1C(C)=C2[C@H]([C@@H]1OC(=O)CCCCCCC)[C@@](C)(OC(C)=O)C[C@H](OC(=O)CCC)[C@@]1(O)[C@H]2OC(=O)[C@@]1(C)O	active: 0.326 µM
O=[N+]([O-])c1cc(CN2CCN(c3cccc(C(F)(F)F)c3)CC2)c2cccnc2c1O	inconclusive: 12.6 µM [inhibitor, single point]
CC(C)CC(=O)Nc1ccc2nn(-c3ccccc3)nc2c1	inconclusive: 1.26 µM [activator, single point]
O=C(Cc1ccc2c(c1)OCCO2)c1c(O)cc(O)cc1O	inconclusive: 5.17 µM [activator, full curve, poor fit]
O=S(=O)(c1cc(C(F)(F)F)ccc1Cl)N1CCN(c2ncnc3ccccc23)CC1	inconclusive: 7.94 µM [inhibitor, partial curve]
